In patent US9624233B2, “Compounds for treating pruritic conditions” (priority 2015, dated 2017):

What was measured:
Conditions in all cases: 1.0E−05M
GABA transporter = test: Abuse liability binding screen, GABA transporter (antagonist radioligand)
Description: (§1) Compound binding was calculated as a % inhibition of the binding of a radioactively labeled ligand specific for each target.

BZD (central) = test: Abuse liability binding screen, BZD (central) (agonist radioligand)
Description: as §1

[1] = system: glycine (strychnine−insensitive); type: binding
Description: as §1

kainate = test: Abuse liability binding screen, kainate (agonist radioligand)
Description: as §1

PCP = test: Abuse liability binding screen, PCP (antagonist radioligand)
Description: as §1

NMDA = test: Abuse liability binding screen, NMDA (antagonist radioligand)
Description: as §1

Na^+ channel (site 2) = test: Abuse liability binding screen, Na+ channel (site 2) (antagonist radioligand)
Description: as §1

[2] = system: Cl^− channel (GABA-gated); test: Abuse liability binding screen, Cl− channel (GABA-gated) (antagonist radioligand)
Description: as §1

ER (non-selective) (h) = test: Abuse liability binding screen, ER (non-selective) (h) (agonist radioligand); parameters: species or system human
Description: as §1

AMPA = test: Abuse liability binding screen, AMPA (antagonist radioligand)
Description: as §1

## Oc1ccc2c3c1O[C@H]1[C@@H](O)CC[C@@]4(O)[C@@H](C2)N(CC2CCC2)CC[C@]314 [Nalbuphine, nalbuphine]
GABA transporter
  % Inhibition of Control Specific Binding 1st: 0.9%
  % Inhibition of Control Specific Binding 2nd: −3.0%
  % Inhibition of Control Specific Binding Mean: −1.1%
BZD (central)
  % Inhibition of Control Specific Binding 1st: −16.7%
  % Inhibition of Control Specific Binding Mean: −6.7%
[1]
  % Inhibition of Control Specific Binding 1st: −9.7%
  % Inhibition of Control Specific Binding Mean: −9.8%
kainate
  % Inhibition of Control Specific Binding 1st: −11.0%
  % Inhibition of Control Specific Binding 2nd: −37.0%
  % Inhibition of Control Specific Binding Mean: −24.0%
PCP
  % Inhibition of Control Specific Binding 1st: −4.3%
  % Inhibition of Control Specific Binding 2nd: 12.0%
  % Inhibition of Control Specific Binding Mean: 3.9%
NMDA
  % Inhibition of Control Specific Binding 1st: −4.2%
  % Inhibition of Control Specific Binding 2nd: −13.4%
  % Inhibition of Control Specific Binding Mean: −8.8%
Na^+ channel (site 2)
  % Inhibition of Control Specific Binding 1st: 3.2%
  % Inhibition of Control Specific Binding 2nd: 6.9%
  % Inhibition of Control Specific Binding Mean: 5.1%
[2]
  % Inhibition of Control Specific Binding 1st: −15.7%
  % Inhibition of Control Specific Binding 2nd: −4.6%
  % Inhibition of Control Specific Binding Mean: −10.2%
ER (non-selective) (h)
  % Inhibition of Control Specific Binding 1st: 0.5%
  % Inhibition of Control Specific Binding 2nd: −1.8%
  % Inhibition of Control Specific Binding Mean: −0.6%
AMPA
  % Inhibition of Control Specific Binding 1st: −1.0%
  % Inhibition of Control Specific Binding 2nd: −8.0%
  % Inhibition of Control Specific Binding Mean: −4.5%
